The whole screen tested about 580,000 compounds, of which about 6,100 (1.1%) were called active. Inconclusive results, whose numbers are uncertain, are shown with a selection of clear calls. The call rests on the fitted dose curve; in most records, active means well fitted inhibition curve with a large enough effect; inconclusive means small, poorly fitted or top-dose-only effect, or another doubt; inactive means no such curve, though single readings can be large or run the other way. A potency beside an inconclusive call is a rough fit, not a confirmed value.
Target: Polyunsaturated fatty acid lipoxygenase ALOX12 (Homo sapiens) (UniProt P18054)
Assay: Primary qHTS assay for inhibitors of human arachidonate 12S-lipoxygenase (ALOX12): Round 2
Settings: purified 12hLO, xylenol orange hydroperoxide absorbance; activity change, negative = inhibition: at 108 µM (top of the series) unless noted
Procedure, shortened: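 Hydroperoxide product was detected by ferrous iron/xylenol orange as the 573 to 405 nm absorbance ratio. Arachidonic acid at 40 uM (final) was turned over for 30 min at room temperature by 150 nM human 12hLO, pH 7.0 Hepes buffer, after 15 min compound preincubation.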
On the % scale 0 is the no-effect control and ±100 the full control effect; potency means the concentration at half of the fitted maximal effect.

The chains behind the UniProt entries cited, without tags or fusion partners. Where a name states a change or a piece, a line headed by the entry shows the natural chain unless it says otherwise.
UniProt P18054: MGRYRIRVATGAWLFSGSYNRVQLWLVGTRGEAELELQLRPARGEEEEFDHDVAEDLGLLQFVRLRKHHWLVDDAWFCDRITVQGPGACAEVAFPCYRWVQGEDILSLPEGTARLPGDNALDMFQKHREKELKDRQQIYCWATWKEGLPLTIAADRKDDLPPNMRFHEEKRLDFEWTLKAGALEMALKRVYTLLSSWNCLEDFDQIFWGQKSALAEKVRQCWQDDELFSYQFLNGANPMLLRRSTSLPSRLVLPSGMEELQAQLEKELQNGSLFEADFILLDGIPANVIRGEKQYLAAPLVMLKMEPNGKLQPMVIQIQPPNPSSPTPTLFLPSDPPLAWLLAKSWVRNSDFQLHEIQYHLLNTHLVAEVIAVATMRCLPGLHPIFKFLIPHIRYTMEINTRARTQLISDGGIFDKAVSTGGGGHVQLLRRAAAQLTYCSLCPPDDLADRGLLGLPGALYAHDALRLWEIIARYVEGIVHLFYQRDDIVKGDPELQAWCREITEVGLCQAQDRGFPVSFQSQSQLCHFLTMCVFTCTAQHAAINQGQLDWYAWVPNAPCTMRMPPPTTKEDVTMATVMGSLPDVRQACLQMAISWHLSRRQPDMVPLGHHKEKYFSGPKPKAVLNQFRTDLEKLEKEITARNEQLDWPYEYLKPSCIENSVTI

Structure (SMILES)	Potency	activity change, negative = inhibition
O=c1c(-c2cccs2)nc2cnc(N3CCNCC3)nc2n1-c1ccccc1	inconclusive: 100 µM [inhibitor, single point]	–
COc1cccc(Nc2nc(-c3ccc(O)cc3)cs2)c1	inconclusive: 31.6 µM [inhibitor, partial curve]	–
CCOc1cc(C2NC(=O)NC(C)=C2C(=O)OC(C)CC)cc(Br)c1O (configuration not stated)	–	inconclusive: -30.3% [inhibitor]
Cc1ccc(N2C(=O)CC3(CCCC3)CC2=O)cc1	inconclusive: 89.1 µM [inhibitor, single point]	–
COC(=O)c1ccccc1NC(=O)Cc1nc(-c2ccc(OC)cc2)no1	inactive	–
CCOC(=O)C1=CCN(S(=O)(=O)c2ccc(C)cc2)[C@H]1c1ccccc1Cl	inconclusive: 28.2 µM [inhibitor, single point]	–
CC(=O)c1cc2c(cc1NC(=O)c1ccco1)OCCO2	inconclusive: 44.7 µM [inhibitor, partial curve, poor fit]	–
CCN(Cc1ccc(O)cc1)CC1CCCN(CCc2cccc(F)c2)C1 (configuration not stated)	inconclusive: 35.5 µM [inhibitor, partial curve, poor fit]	–
Cc1cc(=O)n(CC(=O)Nc2ccc(C)c(C)c2)c(N2CCN(c3ccccc3)CC2)n1	inactive	–
O=C(Nc1cccc(C(=O)OCc2cc(=O)n3ccsc3n2)c1)c1ccc(F)cc1	inconclusive: 100 µM [inhibitor, partial curve, poor fit]	–
COc1cc2c(cc1OC)CN(c1ccc([N+](=O)[O-])cc1Cl)CC2	inconclusive: 89.1 µM [inhibitor, single point]	–
Cc1ccc(NC(=O)C2CCCN2S(=O)(=O)c2ccc3c(c2)n(C)c(=O)c(=O)n3C)cc1 (configuration not stated)	inactive	–
Cc1ccc(C(=O)/C=C/c2cccc(C#N)c2)o1	inconclusive: 50.1 µM [inhibitor, partial curve, poor fit]	–
O=C1c2ccccc2NC(c2cccc(Cl)c2)N1CCCN1CCOCC1 (configuration not stated)	inactive	–
Cc1[nH][nH]c(=O)c1C(c1cccc(OCc2ccc(Cl)cc2)c1)c1c(C)[nH][nH]c1=O	inconclusive: 100 µM [inhibitor, single point]	–
COc1ccccc1CC1CC(=O)N(c2ccc([N+](=O)[O-])cc2)C1=O (configuration not stated)	inactive	–
CC(C)CCN(C(=O)c1cc(=O)[nH]c2ccccc12)c1c(N)n(Cc2ccccc2)c(=O)[nH]c1=O	inactive	–
CCCCn1c(N)c(N(CCC(C)C)C(=O)c2ccc(COc3ccccc3)o2)c(=O)[nH]c1=O	inconclusive: 79.4 µM [inhibitor, partial curve, poor fit]	–
COc1cc2c(cc1OC)CN(C(=O)c1cccc(S(=O)(=O)N3CCc4ccccc43)c1)CC2	inactive	–
CCCn1c(N)c(N(CCOC)C(=O)c2cccc(OC)c2)c(=O)[nH]c1=O	inactive	–
Nc1c(N(CCC2=CCCCC2)C(=O)COc2ccc(F)cc2Cl)c(=O)[nH]c(=O)n1Cc1ccccc1	inactive	–

Structure (SMILES)	Potency	activity change, negative = inhibition
CC1CCCN(CCCNC(=O)CN2C(=O)CCn3nc(-c4cn(C)c5ccccc45)cc32)C1 (configuration not stated)	inactive	–
CN(CCc1ccccc1)[C@@H]1[C@H](O)[C@H](CO)O[C@@H]1CNS(=O)(=O)c1ccccc1	inconclusive: 12.6 µM [inhibitor, full curve, poor fit]	–
Cc1nc(NC(=O)c2ccco2)sc1-c1csc(Nc2ccc(Cl)cc2Cl)n1	inconclusive: 56.2 µM [inhibitor, partial curve, poor fit]	–
CC(C)=CCN1Cc2ccccc2NC(=O)C12CCNC2 (configuration not stated)	inconclusive: 8.91 µM [inhibitor, full curve]	–
CNC(=O)c1cccc(NC(=O)c2cc(C3CC3)nc3ccccc23)c1	active: 39.8 µM	–
O=c1c2c(nc3cc(-c4ccc(Br)cc4)[nH]n13)CCCC2	inactive	–
O=C1NC[C@H](c2ccccc2)N(CCc2cccc3ccccc23)C1=O	inconclusive: 39.8 µM [inhibitor, partial curve, poor fit]	–
CCc1ccc(C(=O)NC(=S)Nc2ccc(N3CCOCC3)cc2)cc1	active: 22.4 µM	–
O=C(OCC(=O)N1CCOCC1)c1ccc2ccccc2n1	inconclusive: 44.7 µM [inhibitor, partial curve, poor fit]	–
CC1=NN(c2cccc(C(=O)O)c2)C(=O)/C1=C\C=C/c1ccccc1	inconclusive: 39.8 µM [inhibitor, partial curve, poor fit]	–
CSc1ccc(/C=C/C(=O)c2ccc3c(c2)OCCO3)cc1	inconclusive: 3.98 µM [inhibitor, full curve, poor fit]	–
CCOCc1c(C(=O)Nc2cc(OCC)c(N3CCOCC3)cc2OCC)oc2ccccc12	inconclusive: 126 µM [inhibitor, single point]	–
Cc1cc(C)n(C(C[N+](=O)[O-])c2ccc(Cl)cc2)n1 (configuration not stated)	inconclusive: 3.16 µM [inhibitor, full curve, poor fit]	–
CCCC(=O)NC(C)c1nc2ccccc2[nH]1 (configuration not stated)	inactive	–
CC1=Nc2ccc(C)cc2/C1=C/c1c(N)n2c(S(=O)(=O)C(C)C)nsc2nc1=O	inconclusive: 44.7 µM [inhibitor, partial curve, poor fit]	–
CCOC(=O)c1c(NC(=O)CCc2ccc(CC)o2)sc(C)c1C	inconclusive: 2.24 µM [inhibitor, full curve, poor fit]	–
CC(=O)C(N=Nc1ccccc1)(Sc1nnc(-c2ccccc2)n1-c1ccccc1)C(=O)Nc1ccccc1 (configuration not stated)	inactive	–
O=C(Cc1ccc2c(c1)CCCC2)Nc1ccccc1Br	inconclusive: 56.2 µM [inhibitor, partial curve, poor fit]	–
CCC(C(=O)Nc1ncccn1)(C(F)(F)F)C(F)(F)F	inconclusive: 31.6 µM [inhibitor, single point]	–
O=C(COC(=O)/C=C/c1ccc(Cl)cc1)NC(=O)NCc1ccccc1	inconclusive: 112 µM [inhibitor, single point]	–
Cc1ccc(CNC(=O)C(=O)NCC(c2cccs2)S(=O)(=O)c2ccccc2)cc1 (configuration not stated)	inconclusive: 141 µM [inhibitor, single point]	–

Single records, as listed above. Values in the order: Potency | activity change, negative = inhibition
O=c1c2c(nc3cc(-c4ccc(Br)cc4)[nH]n13)CCCC2 as listed: inactive | –
CCC(C(=O)Nc1ncccn1)(C(F)(F)F)C(F)(F)F as listed: inconclusive: 31.6 µM [inhibitor, single point] | –

Given as a markdown table: 2 of the compounds above.

| Structure (SMILES) | Potency | activity change, negative = inhibition |
| --- | --- | --- |
| COc1cc2c(cc1OC)CN(c1ccc([N+](=O)[O-])cc1Cl)CC2 | inconclusive: 89.1 µM [inhibitor, single point] | – |
| Cc1ccc(NC(=O)C2CCCN2S(=O)(=O)c2ccc3c(c2)n(C)c(=O)c(=O)n3C)cc1 (configuration not stated) | inactive | – |
